Experimental data reported in US20240197729A1, “ALK-5 Inhibitors and Uses Thereof” (Sumitomo Pharma Oncology, Inc., priority 2021, published 2024).

Tested on: JAK signaling
Experiment: JAK selectivity assay, HEK blue IL-12 reporter
Assay type: cell-based
Details: 24 h, 12.5 ng/ml IL-12, 24 h
Experimental: The cells were purchased from Invivogen (Catalog Nr: hkb-il12) and maintained according to vendor instructions. On the day of the experiment, cells were harvested by repeated tapping of the flask to shake loose the cells attached to the bottom of the flask. Then, cells were harvested, washed and resuspended in DMEM media supplemented with 10% fetal calf serum. 30 Microliters of cell suspension was seeded into a 384-well tissue culture-coated plate containing approximately 10,000 total cells. […] Using the ECHO “Dose Response” software, the test compound was added in duplicate wells with a 3-fold dilution curve. DMSO was back-filled to normalize the DMSO across all wells. […] After 30 minutes of incubation at room temperature, the optical density was measured at 620 nanometer using the Perkin Elmer Envision plate reader. A color change can be detected at this wavelength when secreted alkaline phosphatase, which is triggered by IL-12 signaling, is present in the supernatant. […]

## C[C@@H]1CCN(C(=O)CC#N)C[C@@H]1N(C)c1ncnc2[nH]ccc12 [Tofacitinib, tofacitinib]
  IC50: < 300 nM
